Reference: US20190025332A1

Target: FCRL2-Fab-HPC4
Assay: SPR; ligand as analyte over immobilised Ctrl.-Fab-HPC4

B1: hGDNF (ligand, human, UniProt P39905 78-211, looked up)
chain: SPDKQMAVLPRRERNRQAAAANPENSRGKGRRGQRGKNRGCVLTAIHLNVTDLGLGYETKEELIFRYCSGSCDAAETTYDKILKNLSRNRRLVSDKVGQACCRPIAFDDDLSFLDDNLVYHILRKHSAKRCGCI
binding: no binding

B2: hNRTN (ligand, human, UniProt Q99748 96-197, looked up)
chain: ARLGARPCGLRELEVRVSELGLGYASDETVLFRYCAGACEAAARVYDLGLRRLRQRRRLRRERVRAQPCCRPTAYEDEVSFLDAHSRYHTVHELSARECACV
binding: no binding

B3: hARTN (ligand, human, UniProt Q5T4W7 108-220, looked up)
chain: AGGPGSRARAAGARGCRLRSQLVPVRALGLGHRSDELVRFRFCSGSCRRARSPHDLSLASLLGAGALRPPPGSRPVSQPCCRPTRYEAVSFMDVNSTWRTVDRLSATACGCLG
binding: no binding

B4: hPSPN (ligand, human, UniProt O60542 61-156, looked up)
chain: ALSGPCQLWSLTLSVAELGLGYASEEKVIFRYCAGSCPRGARTQHGLALARLQGQGRAHGGPCCRPTRYTDVAFLDDRHRWQRLPQLSAAACGCGG
binding: no binding

B5: wild type human MIC-1 (ligand)
chain: ARNGDHCPLGPGRCCRLHTVRASLEDLGWADWVLSPREVQVTMCIGACPSQFRAANMHAQIKTSLHRLKPDTVPAPCCVPASYNPMVLIQKTDTGVSLQTYDDLLAKDCHCI
binding: no binding

No constants are given. Whether binding was seen depends on the method and setting.
